Test results published in paper PMC7862700.
Only a part is listed here, and it is no random draw. At the low end of the ranking, values are background and their order means little.

molecular target: SPI1 (UniProt P17947); assay: DAPPL (digital affinity profiling via proximity ligation, sequencing); conditions: 10 mM Tris-HCl pH 7.5, 50 mM NaCl, 1 mM DTT, 4% glycerol, room temperature, 30 min; GST-TFs on glutathione beads, 16-mer random dsDNA library, 0.1% …; high values mean tight binding; double strand, one strand shown; scale: fold enrichment (6-mer frequency, TF over GST control)

Sequence	binding signal
GCGACT	1.2
TTAGTT	1.27
GGTCCT	0.937
TTACTG	1.05
CTAAAC	1.17
CTGAGC	1.11
TTGGGT	1.02
TATGGT	1.28
TGCGTA	1.17
TCCGAC	1.37
TGGTTT	1.66
CCATAA	1.17
CGTTCA	1.16
TAATGA	1.22
TACTCT	1.44
CGTTAA	1.1
ACATAT	1.2
ATCATC	1.14

Sequence	binding signal
GAATAC	0.999
TTTCGA	1.35
CTGGGT	1.13
TATCAG	0.982
TTACCC	1.35
AATAGC	1.15
ATAAAC	1.14
CCCAAT	1.28
AAGGAA	1.48
AATAAC	1.18
TGGCTA	1.2
TATTAT	1.2
ATGCAA	1.2
GCTTAG	1.1
TCTTAA	1.23
TGATGG	1.28
GATGAC	1.58

A different layout for some results above.

| Sequence | binding signal |
| --- | --- |
| GAATAC | 0.999 |
| CCCAAT | 1.28 |
